{"source": "patent US9084734B2", "about": "“Peptide personal care compositions and methods for their use” (Danisco US Inc., priority 2005, dated 2015)", "origin": "cited, not measured here", "conditions": "cited from earlier work", "note": "For at least one compound, name, drawing or mass did not settle the structure."}
{"smiles": "CCCCCCCCCCCCCC(=O)OCC(CCCCCCCC)CCCCCCCCCC", "note": "(centres unmarked) [MOD, Octyldodeceyl Myristate]", "values": [{"measurement": "interfacial tension toward water", "result": 22.1, "unit": "m/Nm"}]}
{"smiles": "CCCCCCCCCCC(CO)CCCCCC", "note": "(centres unmarked) [ISOFOL ® 16, Hexyl Decanol]", "values": [{"measurement": "interfacial tension toward water", "result": 24.3, "unit": "m/Nm"}]}
